The other results are listed elsewhere or left out. Hit calls seldom repeat between salt and free forms of one compound.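 In K562 cells expressing nanoluciferase-fused kinases, luminescence was recorded at 4 h intervals between 2 and 18 h, normalized as percent of control with DMSO at 100% and a positive control at 0%. A significant (2 sigma) signal drop marks a time point as decreased. The authors' rule for a hit is not shown and takes in more than the number of time points.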
How the values were obtained:
Assay in all cases: number of time points (of 5) at which kinase-Nluc abundance scored as decreased, DMSO-normalised (count); higher = more persistent destabilization
Settings in all cases: K562; 2-18 h
PRKCA = PRKCA (UniProt P17252)
PTK2 = PTK2 (UniProt Q05397)
PTK2B = PTK2B (UniProt Q14289)
RAF1 = RAF1 (UniProt P04049)
[1] = biological target: RAF1_S257L (clone: RAF1_mut) (UniProt P04049)
RET = RET (UniProt P07949)
[2] = biological target: RET_M918T (clone: RET_mut) (UniProt P07949)
RIOK1 = RIOK1 (UniProt Q9BRS2)
RIPK1 = RIPK1 (UniProt Q13546)
RIPK2 = RIPK2 (UniProt O43353)
ROR2 = ROR2 (UniProt Q01974)
RPS6KA1 = RPS6KA1 (UniProt Q15418)
SPHK1 = SPHK1 (UniProt Q9NYA1)
SRC = SRC (UniProt P12931)
STK24 = STK24 (UniProt Q9Y6E0)
STK38 = STK38 (UniProt Q15208)
SYK = SYK (UniProt P43405)
TEC = TEC (UniProt P42680)
TYK2 = TYK2 (UniProt P29597)
ULK3 = ULK3 (UniProt Q6PHR2)

The chains behind the UniProt entries cited, without tags or fusion partners. Where a name states a change or a piece, a line headed by the entry shows the natural chain unless it says otherwise.
UniProt Q14289, whole entry, looked up: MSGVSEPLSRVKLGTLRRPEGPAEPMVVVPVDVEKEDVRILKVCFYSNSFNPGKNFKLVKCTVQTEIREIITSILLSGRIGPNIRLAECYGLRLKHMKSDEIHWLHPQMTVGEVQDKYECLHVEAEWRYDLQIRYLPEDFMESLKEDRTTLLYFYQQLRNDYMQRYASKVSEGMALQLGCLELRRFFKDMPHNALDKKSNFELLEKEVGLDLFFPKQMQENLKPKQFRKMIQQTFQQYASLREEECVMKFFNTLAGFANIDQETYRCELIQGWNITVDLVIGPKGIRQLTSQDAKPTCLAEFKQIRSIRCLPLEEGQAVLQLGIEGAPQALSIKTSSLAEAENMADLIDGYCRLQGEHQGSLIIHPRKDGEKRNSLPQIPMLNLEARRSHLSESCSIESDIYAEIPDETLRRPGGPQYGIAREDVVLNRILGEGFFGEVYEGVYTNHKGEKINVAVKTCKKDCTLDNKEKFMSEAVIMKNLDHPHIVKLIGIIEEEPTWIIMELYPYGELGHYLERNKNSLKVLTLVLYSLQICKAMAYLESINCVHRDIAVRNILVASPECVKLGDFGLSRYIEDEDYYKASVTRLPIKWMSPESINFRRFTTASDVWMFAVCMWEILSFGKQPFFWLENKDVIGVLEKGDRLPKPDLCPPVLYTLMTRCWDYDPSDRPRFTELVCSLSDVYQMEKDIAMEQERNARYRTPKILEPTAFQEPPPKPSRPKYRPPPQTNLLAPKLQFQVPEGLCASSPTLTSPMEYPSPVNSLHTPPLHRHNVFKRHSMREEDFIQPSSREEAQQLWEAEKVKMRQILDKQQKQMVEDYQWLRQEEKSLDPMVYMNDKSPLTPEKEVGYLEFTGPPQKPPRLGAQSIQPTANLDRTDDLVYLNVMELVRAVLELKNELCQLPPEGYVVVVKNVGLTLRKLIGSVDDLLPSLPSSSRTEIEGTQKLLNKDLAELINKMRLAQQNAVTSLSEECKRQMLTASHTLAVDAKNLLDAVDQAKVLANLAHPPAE
UniProt Q13546: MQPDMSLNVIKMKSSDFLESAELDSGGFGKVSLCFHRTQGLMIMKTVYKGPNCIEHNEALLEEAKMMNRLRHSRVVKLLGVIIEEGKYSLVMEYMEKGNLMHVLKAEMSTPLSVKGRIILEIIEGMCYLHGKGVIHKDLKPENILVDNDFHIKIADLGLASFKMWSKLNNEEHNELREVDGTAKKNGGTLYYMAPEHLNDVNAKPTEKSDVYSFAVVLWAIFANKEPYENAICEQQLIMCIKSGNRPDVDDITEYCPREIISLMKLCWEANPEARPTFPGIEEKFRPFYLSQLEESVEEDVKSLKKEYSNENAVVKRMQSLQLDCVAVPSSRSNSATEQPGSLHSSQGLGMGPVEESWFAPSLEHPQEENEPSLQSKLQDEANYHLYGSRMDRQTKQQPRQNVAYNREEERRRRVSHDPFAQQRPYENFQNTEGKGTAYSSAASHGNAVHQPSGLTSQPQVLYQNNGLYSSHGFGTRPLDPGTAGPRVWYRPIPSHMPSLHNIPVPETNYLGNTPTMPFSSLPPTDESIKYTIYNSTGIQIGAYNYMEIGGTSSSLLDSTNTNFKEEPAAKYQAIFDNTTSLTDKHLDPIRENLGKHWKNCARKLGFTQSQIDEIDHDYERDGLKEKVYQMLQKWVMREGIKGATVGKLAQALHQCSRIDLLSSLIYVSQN
UniProt Q01974, whole entry: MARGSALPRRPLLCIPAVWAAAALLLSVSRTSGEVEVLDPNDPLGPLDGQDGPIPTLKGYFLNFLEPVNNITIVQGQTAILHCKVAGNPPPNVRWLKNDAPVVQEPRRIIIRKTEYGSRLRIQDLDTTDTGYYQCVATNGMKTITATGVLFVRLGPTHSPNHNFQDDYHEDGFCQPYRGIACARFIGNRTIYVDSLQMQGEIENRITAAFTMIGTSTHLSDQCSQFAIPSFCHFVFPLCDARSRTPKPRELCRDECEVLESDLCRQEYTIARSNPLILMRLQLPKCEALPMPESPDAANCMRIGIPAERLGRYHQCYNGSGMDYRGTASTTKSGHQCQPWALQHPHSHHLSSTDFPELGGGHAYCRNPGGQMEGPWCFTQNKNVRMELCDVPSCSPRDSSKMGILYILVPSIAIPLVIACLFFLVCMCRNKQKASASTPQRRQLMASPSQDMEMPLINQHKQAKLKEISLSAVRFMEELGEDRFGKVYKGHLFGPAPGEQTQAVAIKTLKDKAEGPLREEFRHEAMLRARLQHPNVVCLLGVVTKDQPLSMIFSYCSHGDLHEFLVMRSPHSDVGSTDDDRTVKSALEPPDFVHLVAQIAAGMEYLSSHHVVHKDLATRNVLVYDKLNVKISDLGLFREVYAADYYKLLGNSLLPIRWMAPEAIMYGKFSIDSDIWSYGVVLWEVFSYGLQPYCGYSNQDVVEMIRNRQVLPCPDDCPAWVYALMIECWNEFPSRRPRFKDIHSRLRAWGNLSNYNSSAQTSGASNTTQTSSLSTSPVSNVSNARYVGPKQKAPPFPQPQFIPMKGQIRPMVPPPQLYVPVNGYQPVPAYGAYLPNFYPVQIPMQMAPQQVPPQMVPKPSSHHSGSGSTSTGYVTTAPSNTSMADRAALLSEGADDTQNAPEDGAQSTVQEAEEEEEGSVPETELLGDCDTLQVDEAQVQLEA
UniProt Q15418, whole entry: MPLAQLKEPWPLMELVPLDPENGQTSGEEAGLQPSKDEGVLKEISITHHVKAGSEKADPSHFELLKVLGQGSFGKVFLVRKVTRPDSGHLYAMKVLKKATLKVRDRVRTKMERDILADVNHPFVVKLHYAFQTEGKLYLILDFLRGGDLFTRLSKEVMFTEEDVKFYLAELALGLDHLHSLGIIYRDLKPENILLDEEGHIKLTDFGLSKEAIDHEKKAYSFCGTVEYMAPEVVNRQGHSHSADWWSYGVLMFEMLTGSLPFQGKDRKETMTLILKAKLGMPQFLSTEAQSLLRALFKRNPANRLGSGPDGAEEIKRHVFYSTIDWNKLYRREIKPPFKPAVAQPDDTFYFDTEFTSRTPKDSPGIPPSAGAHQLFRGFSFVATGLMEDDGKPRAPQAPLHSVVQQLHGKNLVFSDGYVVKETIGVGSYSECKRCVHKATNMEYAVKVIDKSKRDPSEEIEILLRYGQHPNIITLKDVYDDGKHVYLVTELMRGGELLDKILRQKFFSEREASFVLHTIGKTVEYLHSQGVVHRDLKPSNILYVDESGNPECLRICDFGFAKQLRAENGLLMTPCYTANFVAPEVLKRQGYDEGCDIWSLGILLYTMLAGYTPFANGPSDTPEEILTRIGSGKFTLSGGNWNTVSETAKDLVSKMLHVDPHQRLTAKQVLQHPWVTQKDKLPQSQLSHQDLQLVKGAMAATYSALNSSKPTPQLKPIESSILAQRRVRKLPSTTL
UniProt Q9Y6E0: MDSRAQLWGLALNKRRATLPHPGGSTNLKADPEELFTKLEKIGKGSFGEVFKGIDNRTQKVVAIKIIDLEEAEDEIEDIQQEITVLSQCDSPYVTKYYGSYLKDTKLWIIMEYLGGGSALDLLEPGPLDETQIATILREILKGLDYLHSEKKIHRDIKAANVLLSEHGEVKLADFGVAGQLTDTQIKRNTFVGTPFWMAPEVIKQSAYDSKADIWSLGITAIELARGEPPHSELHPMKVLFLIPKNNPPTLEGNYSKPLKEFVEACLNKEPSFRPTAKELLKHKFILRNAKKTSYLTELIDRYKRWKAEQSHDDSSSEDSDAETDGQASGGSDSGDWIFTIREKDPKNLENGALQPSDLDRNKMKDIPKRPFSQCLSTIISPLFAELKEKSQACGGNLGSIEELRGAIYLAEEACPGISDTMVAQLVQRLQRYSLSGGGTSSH
UniProt Q15208: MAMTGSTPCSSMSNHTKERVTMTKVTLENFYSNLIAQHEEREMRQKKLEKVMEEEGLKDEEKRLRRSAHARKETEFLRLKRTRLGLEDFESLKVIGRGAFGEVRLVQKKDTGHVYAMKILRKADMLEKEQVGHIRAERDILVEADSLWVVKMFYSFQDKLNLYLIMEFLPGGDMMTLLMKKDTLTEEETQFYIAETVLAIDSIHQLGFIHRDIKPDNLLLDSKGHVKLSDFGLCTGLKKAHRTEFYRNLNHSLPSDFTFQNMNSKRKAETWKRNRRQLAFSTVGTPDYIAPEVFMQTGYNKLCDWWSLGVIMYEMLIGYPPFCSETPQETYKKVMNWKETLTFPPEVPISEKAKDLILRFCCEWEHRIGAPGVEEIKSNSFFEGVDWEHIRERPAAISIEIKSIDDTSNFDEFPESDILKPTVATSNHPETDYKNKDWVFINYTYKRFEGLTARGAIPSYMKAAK
UniProt P42680: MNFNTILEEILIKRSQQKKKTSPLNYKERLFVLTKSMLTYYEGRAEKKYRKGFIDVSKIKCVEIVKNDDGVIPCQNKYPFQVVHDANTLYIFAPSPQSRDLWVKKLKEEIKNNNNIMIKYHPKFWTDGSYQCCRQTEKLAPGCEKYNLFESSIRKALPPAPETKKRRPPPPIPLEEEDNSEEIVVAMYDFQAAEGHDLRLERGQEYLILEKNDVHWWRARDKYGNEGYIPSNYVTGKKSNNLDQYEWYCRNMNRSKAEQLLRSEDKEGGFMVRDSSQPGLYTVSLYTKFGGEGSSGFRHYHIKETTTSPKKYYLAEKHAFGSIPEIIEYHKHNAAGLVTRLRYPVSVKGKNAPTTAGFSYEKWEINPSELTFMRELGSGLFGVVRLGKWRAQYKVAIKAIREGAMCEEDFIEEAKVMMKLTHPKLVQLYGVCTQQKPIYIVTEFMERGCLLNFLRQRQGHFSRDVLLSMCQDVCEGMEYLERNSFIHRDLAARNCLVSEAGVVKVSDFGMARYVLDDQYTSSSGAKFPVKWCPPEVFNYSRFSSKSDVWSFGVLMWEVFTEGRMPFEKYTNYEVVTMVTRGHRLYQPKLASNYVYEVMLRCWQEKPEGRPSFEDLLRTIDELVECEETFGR
UniProt P29597: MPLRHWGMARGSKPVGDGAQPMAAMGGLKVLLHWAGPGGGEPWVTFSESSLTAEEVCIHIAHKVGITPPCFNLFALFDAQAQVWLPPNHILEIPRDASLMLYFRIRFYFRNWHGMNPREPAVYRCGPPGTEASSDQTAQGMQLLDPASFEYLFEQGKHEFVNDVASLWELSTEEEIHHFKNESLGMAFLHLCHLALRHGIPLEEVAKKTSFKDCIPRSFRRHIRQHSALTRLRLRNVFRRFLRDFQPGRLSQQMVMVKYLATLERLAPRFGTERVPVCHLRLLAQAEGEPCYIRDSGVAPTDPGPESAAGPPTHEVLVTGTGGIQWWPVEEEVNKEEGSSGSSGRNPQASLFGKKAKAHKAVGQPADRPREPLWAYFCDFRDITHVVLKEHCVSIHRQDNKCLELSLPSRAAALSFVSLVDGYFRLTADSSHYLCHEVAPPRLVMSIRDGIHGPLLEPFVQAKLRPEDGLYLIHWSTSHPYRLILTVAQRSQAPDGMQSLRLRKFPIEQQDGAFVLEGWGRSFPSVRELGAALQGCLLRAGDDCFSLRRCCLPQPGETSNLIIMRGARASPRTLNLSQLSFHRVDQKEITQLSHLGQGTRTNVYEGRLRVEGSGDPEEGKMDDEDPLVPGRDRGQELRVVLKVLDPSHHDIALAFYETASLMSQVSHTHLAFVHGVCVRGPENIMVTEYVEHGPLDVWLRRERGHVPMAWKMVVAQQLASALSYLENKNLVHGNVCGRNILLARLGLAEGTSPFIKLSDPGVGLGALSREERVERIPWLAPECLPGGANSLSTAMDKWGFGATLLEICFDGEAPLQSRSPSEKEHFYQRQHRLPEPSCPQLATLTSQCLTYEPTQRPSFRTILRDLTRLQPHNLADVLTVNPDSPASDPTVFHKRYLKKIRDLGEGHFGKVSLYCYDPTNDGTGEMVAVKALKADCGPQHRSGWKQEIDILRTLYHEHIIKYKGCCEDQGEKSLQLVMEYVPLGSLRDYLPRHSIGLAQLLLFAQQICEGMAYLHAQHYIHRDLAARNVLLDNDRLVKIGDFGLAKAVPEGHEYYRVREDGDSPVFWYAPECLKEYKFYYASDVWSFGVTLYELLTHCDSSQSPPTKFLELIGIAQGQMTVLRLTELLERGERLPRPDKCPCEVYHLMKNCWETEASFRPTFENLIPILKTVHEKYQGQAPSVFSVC
UniProt Q6PHR2: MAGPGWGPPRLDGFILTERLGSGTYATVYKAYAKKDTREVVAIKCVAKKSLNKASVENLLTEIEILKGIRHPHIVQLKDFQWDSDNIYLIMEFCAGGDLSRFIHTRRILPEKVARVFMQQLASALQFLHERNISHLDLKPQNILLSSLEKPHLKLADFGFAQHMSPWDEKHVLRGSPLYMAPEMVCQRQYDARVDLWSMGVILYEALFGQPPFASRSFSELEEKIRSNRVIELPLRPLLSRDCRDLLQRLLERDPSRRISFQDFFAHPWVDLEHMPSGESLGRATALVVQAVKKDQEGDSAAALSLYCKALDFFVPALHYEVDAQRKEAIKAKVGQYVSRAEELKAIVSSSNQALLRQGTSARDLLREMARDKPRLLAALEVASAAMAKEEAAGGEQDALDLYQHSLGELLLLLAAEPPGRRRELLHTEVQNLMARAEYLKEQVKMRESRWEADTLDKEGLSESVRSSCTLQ

Measured: number of time points

Cc1cc(-c2ccnc(Nc3cnn(C)c3)n2)ccc1CNC(=O)N1CC(OC(C)C)C1 (10 µM)
0: all assays above

C[C@@H]1O[C@@H](O[C@@H]2[C@@H](O)[C@H](OCCc3ccc(O)c(O)c3)O[C@H](CO)[C@H]2OC(=O)/C=C/c2ccc(O)c(O)c2)[C@H](O)[C@H](O)[C@H]1O [Verbascoside] (10 µM)
0: all assays above

N#Cc1ccnc(Nc2cc(C3CCN(C4COC4)CC3)cc(N3CCC(F)(F)C3)n2)c1 (2.5 µM)
3: PTK2
0: all other assays above

COc1cc(-c2cn[nH]c2)ccc1C(=O)Nc1ccc2c(c1)CCNCC2 (10 µM)
0: all assays above

O=C(O)c1cccc(CN2C(=O)/C(=C(\c3ccccc3)c3ccc(Cl)cc3)c3ccccc32)c1 (2.5 µM)
0: all assays above

COCCNc1cc(NC(=O)N2CCCc3cc(CN4CCN(C)CC4=O)c(C=O)nc32)ncc1C#N [Roblitinib] (10 µM)
0: all assays above

CC(C)C[C@@H](C(=O)Nc1ccn(C[C@@H](O)CO)n1)N1CC(Oc2ccccc2Cl)=CC1=O [Dorzagliatin] (10 µM)
0: all assays above

Cn1cc2cc(C(F)(F)c3nnc4ccc(-c5cnn(C6CC6)c5)nn34)c(F)cc2n1 [Bozitinib] (10 µM)
0: all assays above

COc1cc2ncnc(-n3nc(-c4ccccn4)nc3N)c2cc1OC (10 µM)
3: PTK2
0: all other assays above

3 structures from above, sorted by molar mass, low to high:
COc1cc(-c2cn[nH]c2)ccc1C(=O)Nc1ccc2c(c1)CCNCC2 (10 µM)
0: all assays above

N#Cc1ccnc(Nc2cc(C3CCN(C4COC4)CC3)cc(N3CCC(F)(F)C3)n2)c1 (2.5 µM)
3: PTK2
0: all other assays above

O=C(O)c1cccc(CN2C(=O)/C(=C(\c3ccccc3)c3ccc(Cl)cc3)c3ccccc32)c1 (2.5 µM)
0: all assays above

Later entries:

O=C(O)c1cc(=O)c2c(OCC(O)COc3cccc4oc(C(=O)O)cc(=O)c34)cccc2o1 [Cromolyn (sodium)] (10 µM)
0: all assays above

C[C@@H]1CC(=O)c2c(ccc3c2C(=O)c2cccc(O)c2C3=O)C1 [Ochromycinone] (10 µM)
0: all assays above

C[C@H](Nc1ncnc2[nH]cnc12)c1cc2ccc(F)cc2nc1-c1ccccn1 (10 µM)
0: all assays above

Cc1cc(C)nc(NS(=O)(=O)c2ccc(NC(=S)NC(=O)COc3ccc(Br)cc3Cl)cc2)n1 (2.5 µM)
0: all assays above

C=CCc1ccc(O)c(-c2ccc(O)c(CC=C)c2)c1 [Honokiol] (10 µM)
0: all assays above

C=CC(=O)Nc1cccc(-c2cccc3cnc(Nc4ccc(N5CCN(CCO)CC5)c(F)c4F)nc23)c1 [Olafertinib] (2.5 µM)
0: all assays above

CN(c1ccc(NC(=O)Nc2ccc(OC(F)(F)F)cc2)cc1)c1ccnc(Nc2cccc(S(N)(=O)=O)c2)n1 (2.5 µM)
0: RIOK1 | RPS6KA1 | SPHK1 | SRC | STK24 | SYK
4: ULK3
2: RIPK2 | TEC
1: PTK2B | [2] | ROR2 | STK38
3: all other assays above

O=C1NC(=O)C(c2cnc3ccccn23)=C1c1cn2c3c(cc(F)cc13)CNCC2 [GSK-3 inhibitor 1] (2.5 µM)
0: all assays above

From the supplement of paper PMC12823440, “Inhibitors supercharge kinase turnover through native proteolytic circuits” (Nature, 2025)
